The target of this test is Tripartite motif containing 28 (TRIM28) (mouse (endogenous in Th17 cells)) (UniProt Q62318). Briefly: co-IP; endogenous proteins; Th17 cells (2×10^7, TGF-β and IL-6, 3 days) lysed in 25 mM Tris pH 7.4, 150 mM NaCl, 1 mM EDTA, 1% NP-40, 5% glycerol, sonicated; anti-TRIM28 antibody or control IgG, 4 °C overnight, Dynabeads protein G; immunoblot for RORγt and STAT3. A general note: Immunoblotting shows a protein as a band on a membrane.

Chains of the proteins cited; added tags and fusions are not shown. Lines headed by an entry give the natural chain unless they say otherwise; changes in a name come on top. A line that says so, or that is headed by a name, gives the form on record, which may keep a tag or linker.
UniProt Q62318: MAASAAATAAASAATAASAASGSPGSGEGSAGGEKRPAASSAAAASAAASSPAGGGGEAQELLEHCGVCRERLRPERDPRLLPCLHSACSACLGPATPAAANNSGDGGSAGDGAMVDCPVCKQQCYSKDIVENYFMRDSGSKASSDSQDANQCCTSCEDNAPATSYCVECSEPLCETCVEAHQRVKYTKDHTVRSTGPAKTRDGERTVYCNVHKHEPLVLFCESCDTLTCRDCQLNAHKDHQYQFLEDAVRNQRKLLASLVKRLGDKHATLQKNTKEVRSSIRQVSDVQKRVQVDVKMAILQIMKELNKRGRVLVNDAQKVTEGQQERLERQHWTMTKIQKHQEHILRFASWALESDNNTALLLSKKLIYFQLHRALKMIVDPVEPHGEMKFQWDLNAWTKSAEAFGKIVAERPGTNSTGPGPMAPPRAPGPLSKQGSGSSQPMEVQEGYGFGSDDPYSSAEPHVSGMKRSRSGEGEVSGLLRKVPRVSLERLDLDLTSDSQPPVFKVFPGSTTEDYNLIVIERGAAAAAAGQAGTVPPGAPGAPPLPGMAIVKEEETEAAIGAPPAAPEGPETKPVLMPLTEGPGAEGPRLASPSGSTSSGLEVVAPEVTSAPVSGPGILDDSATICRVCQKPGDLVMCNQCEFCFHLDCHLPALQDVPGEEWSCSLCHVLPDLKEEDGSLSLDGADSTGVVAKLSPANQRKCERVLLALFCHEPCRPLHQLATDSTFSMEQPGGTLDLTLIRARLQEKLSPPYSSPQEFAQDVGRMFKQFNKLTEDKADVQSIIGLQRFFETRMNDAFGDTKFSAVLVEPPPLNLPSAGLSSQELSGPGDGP
RAR-related orphan receptor gamma (RORγt) (P51450-2, form named): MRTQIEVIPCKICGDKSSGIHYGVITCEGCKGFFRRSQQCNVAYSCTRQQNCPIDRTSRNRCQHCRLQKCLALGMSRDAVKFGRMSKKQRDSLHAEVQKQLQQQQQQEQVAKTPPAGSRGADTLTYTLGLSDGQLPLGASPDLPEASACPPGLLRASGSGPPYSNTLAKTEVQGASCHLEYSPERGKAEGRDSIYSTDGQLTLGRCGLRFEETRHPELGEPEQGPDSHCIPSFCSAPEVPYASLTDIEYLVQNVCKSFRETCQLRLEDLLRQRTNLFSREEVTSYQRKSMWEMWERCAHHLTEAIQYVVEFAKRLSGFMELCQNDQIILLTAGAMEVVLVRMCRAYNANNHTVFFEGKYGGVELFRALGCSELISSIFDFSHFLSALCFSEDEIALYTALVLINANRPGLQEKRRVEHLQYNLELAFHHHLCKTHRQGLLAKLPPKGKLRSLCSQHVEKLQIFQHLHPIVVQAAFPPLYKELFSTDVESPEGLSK
UniProt P42227: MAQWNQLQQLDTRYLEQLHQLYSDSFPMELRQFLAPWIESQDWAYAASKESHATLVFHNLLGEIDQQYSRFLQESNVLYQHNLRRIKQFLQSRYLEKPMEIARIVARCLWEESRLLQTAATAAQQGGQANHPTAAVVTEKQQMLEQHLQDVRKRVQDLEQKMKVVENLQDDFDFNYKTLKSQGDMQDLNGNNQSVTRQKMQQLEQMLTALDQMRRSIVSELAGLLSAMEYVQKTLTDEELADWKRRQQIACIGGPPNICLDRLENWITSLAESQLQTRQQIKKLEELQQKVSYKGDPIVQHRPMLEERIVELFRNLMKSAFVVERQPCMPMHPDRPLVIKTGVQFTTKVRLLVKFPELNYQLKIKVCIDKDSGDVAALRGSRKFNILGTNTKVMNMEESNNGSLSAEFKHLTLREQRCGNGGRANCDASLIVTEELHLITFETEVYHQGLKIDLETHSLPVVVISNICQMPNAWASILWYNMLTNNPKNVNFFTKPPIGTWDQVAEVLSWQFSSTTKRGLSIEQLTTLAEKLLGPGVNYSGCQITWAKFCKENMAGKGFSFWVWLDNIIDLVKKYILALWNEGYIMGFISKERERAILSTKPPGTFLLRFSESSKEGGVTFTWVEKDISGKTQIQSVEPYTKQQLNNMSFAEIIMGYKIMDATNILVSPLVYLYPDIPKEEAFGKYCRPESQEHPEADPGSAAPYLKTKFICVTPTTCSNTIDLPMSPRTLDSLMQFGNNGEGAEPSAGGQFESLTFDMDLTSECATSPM

Results are given in words; binding and its absence hold for the method and conditions named. Binding seen in cells or lysates may run through a third protein. Some results given as binding are weak or reduced against the parent protein; the word gives no strength.

Regarding “RAR-related orphan receptor gamma (RORγt) (from UniProt P51450-2 1-495)”, the binding entry is given as “binds”. The entry for “signal transducer and activator of transcription 3 (STAT3) (from UniProt P42227 1-770)” is “binds”.

The values are drawn from paper PMC5897371.
